Source: PubChem BioAssay AID1159506 (NCATS, 2015).

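Luminescence from an EWS-FLI1 target-promoter (NR0B1) reporter, set against a CMV-promoter reporter, two days after silencing single genes in TC32 Ewing sarcoma cells. Each siRNA was applied at 20 nM. A z-score of the log NR0B1-over-CMV signal, less the median of siRNAs with the same seed; more negative means a stronger specific loss of the NR0B1 reporter.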

This is part of the screen; most of the strongest results are not listed here. Sequences are the guide (antisense) strand, without overhang.

Result for UGAGUAACUGUAGAUUUCU against SAMD12 was seed-corrected z-score -0.2605. For UCUGUGAGCGAGAUACUGC against H2AFV the result was seed-corrected z-score -0.4239. UAUGAUUUUAUCUCCAUAC against OS9 gave seed-corrected z-score 0.1909. With UUUACCUGUAGAUCUCUGG against FYB the assay gave seed-corrected z-score 0.3858. UGACUACUGAGCAUCACCC against BDNF gave seed-corrected z-score -0.501.

With UAUAAACCAGGAUGAAACC against RAP2C the assay gave seed-corrected z-score 0.1543. With AAUUGUAGCCGUAAGAGCC against HOXB5 the assay gave seed-corrected z-score 0.4409. Result for UUACAAAUUCGCCCUGUGC against LYRM5 was seed-corrected z-score 0.0601. UUUGAGUCCCUGUCGAACC against GLRX3 read seed-corrected z-score -0.2751. AUCUGAUCCAUUGGUAUCU against MAP3K7 gave seed-corrected z-score 0.6255.

Result for AUUGGGCUAAGAUCUCUAG against KRTAP4-6 was seed-corrected z-score -0.8429. For UUGCGGAAGAACUUGAGCG against PDIA2 the result was seed-corrected z-score -0.1929. For UUGUCUCAGACAGUCUUCG against GPR52 the result was seed-corrected z-score 0.211. AUAAUAUCAGGCUAACACC against PKHD1 gave seed-corrected z-score 0.4972. Result for UCUCGUAUUUGGAAACUUC against CDK9 was seed-corrected z-score 0.2848.

With AUAGGUCUGCUGCAUGUCC against ZC3H7B the assay gave seed-corrected z-score -0.7336. AUGAGGAUUACUGCCCUGC against DLX6 gave seed-corrected z-score -0.8887. With UUACUGUUGUGGAAGUCUG against C11orf53 the assay gave seed-corrected z-score 0.02318. Result for AACCCGUUUAGCCUUGUAG against SIAH3 was seed-corrected z-score -0.366. With UUGUCUUUGACAUUGUGGU against ANKDD1A the assay gave seed-corrected z-score -1.057.

UUGGUGUUGAUGGGUGGUU against CSAG1 read seed-corrected z-score -1.156. Result for UCUACAGAGAGCCUAGGCC against TIMM10 was seed-corrected z-score -0.2121. For UAGUUUGAGCCUAUAGUUG against LOC728667 the result was seed-corrected z-score -0.6185. Result for UAUGGUCAAAGGGACUGAC against PTPN1 was seed-corrected z-score -0.1254. With UUAGUAUCUCGAGGACAUC against HAO1 the assay gave seed-corrected z-score 0.5215.

For ACCGGUUCCAGUUAGACAG against APPBP2 the result was seed-corrected z-score -0.01765. Result for UAGUAUAGUAAAUUCGUAG against ITPR1 was seed-corrected z-score 0.9367. AUAUUCGUGAAAGAUGGUC against MAP3K9 read seed-corrected z-score 0.613. Result for UAACUUAAGGGUAACCGGG against DDX56 was seed-corrected z-score 1.063. With UACAAUAUUAGCAUGGAUC against RGCC the assay gave seed-corrected z-score 0.1775.

For UUCUGAAUCUGUGGGUAGC against ALX1 the result was seed-corrected z-score -0.3662. UUCCGUAAAGAUGAUUUCC against DONSON read seed-corrected z-score -0.633. UUUUAUUGAAUCGAAGCUC against SLC5A6 gave seed-corrected z-score 1.846. UCCGUUCUCAUCAGUUUCU against WWOX gave seed-corrected z-score 0.0766. For UCUAGACUCAUGGCCGUGA against LTB4R the result was seed-corrected z-score 0.5189.

With UAUUGUGCACCAAUGUUCC against PIEZO2 the assay gave seed-corrected z-score 1.307. Result for UAUUGAUCCAGACUGUUGC against NANP was seed-corrected z-score 0.4356. AUGCUUUCGAACAUAACUG against ZNF564 gave seed-corrected z-score -0.8204. For UACGUGACGAUGCAGAUGA against VKORC1L1 the result was seed-corrected z-score -0.2331. For UUUUUGUCAAUGAACCUCU against LOC653653 the result was seed-corrected z-score 0.02883.

Result for AAAGCUCCACUUCAAGUUC against FAM209B was seed-corrected z-score 0.1945. For UCCUCGGUGAUACUCCUGC against CSF1 the result was seed-corrected z-score 1.132. With UUCUUAUAGAAGGUCUUCC against ZNF37A the assay gave seed-corrected z-score -0.2108. With AAAGGUGUAGAAGUCAUCG against ADCY7 the assay gave seed-corrected z-score -0.335. UCUUGAAAUACGGUGAGAC against SNTA1 read seed-corrected z-score 0.02516.

Result for UUGACUCUAAGUUUAAGCC against MYLIP was seed-corrected z-score -0.2443. Result for AUCUGGGACAUGGUAGCUG against CYC1 was seed-corrected z-score -1.841.